Measurements reported in PMC9382421.
No constants are given. Whether binding was seen depends on the method and setting. In cells and extracts the contact can be indirect. Some results given as binding are weak or reduced against the parent protein; the word gives no strength.

By UniProt entry, the sequences of proteins in these tests, tags left out. Residues count along the entry.
UniProt Q3UVX5, residues 19-1203: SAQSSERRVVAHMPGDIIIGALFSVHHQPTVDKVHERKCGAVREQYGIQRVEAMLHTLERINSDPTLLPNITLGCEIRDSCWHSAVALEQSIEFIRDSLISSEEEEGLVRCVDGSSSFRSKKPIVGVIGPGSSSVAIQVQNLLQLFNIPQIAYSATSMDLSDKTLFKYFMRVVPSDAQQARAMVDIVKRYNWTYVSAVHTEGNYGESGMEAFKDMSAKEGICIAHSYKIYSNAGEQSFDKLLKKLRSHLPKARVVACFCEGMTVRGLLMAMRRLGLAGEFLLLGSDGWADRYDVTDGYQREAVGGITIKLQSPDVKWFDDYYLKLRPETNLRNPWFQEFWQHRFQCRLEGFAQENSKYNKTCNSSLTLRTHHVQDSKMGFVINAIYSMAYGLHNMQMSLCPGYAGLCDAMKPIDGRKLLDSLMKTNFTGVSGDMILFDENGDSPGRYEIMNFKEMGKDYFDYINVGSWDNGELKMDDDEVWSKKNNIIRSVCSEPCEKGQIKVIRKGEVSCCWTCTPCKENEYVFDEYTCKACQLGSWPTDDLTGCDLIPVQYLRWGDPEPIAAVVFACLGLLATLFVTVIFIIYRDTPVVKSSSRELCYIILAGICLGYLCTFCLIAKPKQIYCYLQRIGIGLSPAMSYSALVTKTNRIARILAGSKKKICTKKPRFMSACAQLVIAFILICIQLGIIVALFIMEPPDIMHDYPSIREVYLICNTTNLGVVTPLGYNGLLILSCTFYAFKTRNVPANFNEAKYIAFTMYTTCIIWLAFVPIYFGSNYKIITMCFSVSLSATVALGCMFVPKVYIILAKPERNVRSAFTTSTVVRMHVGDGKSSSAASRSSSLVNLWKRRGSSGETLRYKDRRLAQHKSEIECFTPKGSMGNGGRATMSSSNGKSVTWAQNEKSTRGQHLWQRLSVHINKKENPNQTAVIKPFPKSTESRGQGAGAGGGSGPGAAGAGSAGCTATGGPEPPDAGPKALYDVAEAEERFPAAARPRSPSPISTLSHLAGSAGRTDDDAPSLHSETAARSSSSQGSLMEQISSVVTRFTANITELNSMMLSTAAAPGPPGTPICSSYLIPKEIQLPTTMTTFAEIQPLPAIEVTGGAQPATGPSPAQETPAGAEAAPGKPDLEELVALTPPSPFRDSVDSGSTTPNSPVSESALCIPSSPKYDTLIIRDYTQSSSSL

What was measured:
[1] = biological target: T1, β3 integrin (mouse (endogenous in mouse cortex)) (UniProt O54890); test: co-IP; membrane fraction of adult mouse cortex solubilised in buffer B (100 mM NaCl, 20 mM HEPES, 0.2 mM CaCl2, 1 mM MgCl2, 1% Triton X-100); lysate incubated overnight with Protein G beads coupled with hamster anti-CD61 or rabbit anti-mGluR5; controls non-immune hamster IgG or rabbit anti-RFP; western blot
T1 sequence: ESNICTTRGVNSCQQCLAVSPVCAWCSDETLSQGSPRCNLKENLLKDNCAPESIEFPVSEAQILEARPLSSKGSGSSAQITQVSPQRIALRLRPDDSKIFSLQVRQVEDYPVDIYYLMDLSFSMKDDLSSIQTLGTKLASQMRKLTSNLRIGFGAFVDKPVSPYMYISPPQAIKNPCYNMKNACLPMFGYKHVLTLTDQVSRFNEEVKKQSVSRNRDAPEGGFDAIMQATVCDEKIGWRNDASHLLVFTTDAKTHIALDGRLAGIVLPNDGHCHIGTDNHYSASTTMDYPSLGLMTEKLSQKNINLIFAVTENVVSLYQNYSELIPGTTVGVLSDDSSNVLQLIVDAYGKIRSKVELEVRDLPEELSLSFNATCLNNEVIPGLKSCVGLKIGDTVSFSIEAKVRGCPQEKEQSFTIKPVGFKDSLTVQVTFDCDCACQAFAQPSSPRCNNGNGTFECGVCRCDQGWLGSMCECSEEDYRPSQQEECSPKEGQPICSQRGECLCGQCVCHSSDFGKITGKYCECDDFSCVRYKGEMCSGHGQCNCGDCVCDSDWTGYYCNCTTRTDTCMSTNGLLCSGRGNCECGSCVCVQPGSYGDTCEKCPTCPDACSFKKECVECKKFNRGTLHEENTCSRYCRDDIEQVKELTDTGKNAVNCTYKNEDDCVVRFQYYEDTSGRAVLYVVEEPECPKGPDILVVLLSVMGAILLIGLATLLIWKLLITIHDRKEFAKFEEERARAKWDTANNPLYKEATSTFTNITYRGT

[2] = biological target: metabotropic glutamate receptor mGluR5 (mouse (endogenous in mouse cortex)) (UniProt Q3UVX5); test: as above

With “metabotropic glutamate receptor mGluR5 (from UniProt Q3UVX5 19-1203)” the binding [1] was “binds”.

B1: β3 integrin (receptor, UniProt O54890 26-787)
chain: ESNICTTRGVNSCQQCLAVSPVCAWCSDETLSQGSPRCNLKENLLKDNCAPESIEFPVSEAQILEARPLSSKGSGSSAQITQVSPQRIALRLRPDDSKIFSLQVRQVEDYPVDIYYLMDLSFSMKDDLSSIQTLGTKLASQMRKLTSNLRIGFGAFVDKPVSPYMYISPPQAIKNPCYNMKNACLPMFGYKHVLTLTDQVSRFNEEVKKQSVSRNRDAPEGGFDAIMQATVCDEKIGWRNDASHLLVFTTDAKTHIALDGRLAGIVLPNDGHCHIGTDNHYSASTTMDYPSLGLMTEKLSQKNINLIFAVTENVVSLYQNYSELIPGTTVGVLSDDSSNVLQLIVDAYGKIRSKVELEVRDLPEELSLSFNATCLNNEVIPGLKSCVGLKIGDTVSFSIEAKVRGCPQEKEQSFTIKPVGFKDSLTVQVTFDCDCACQAFAQPSSPRCNNGNGTFECGVCRCDQGWLGSMCECSEEDYRPSQQEECSPKEGQPICSQRGECLCGQCVCHSSDFGKITGKYCECDDFSCVRYKGEMCSGHGQCNCGDCVCDSDWTGYYCNCTTRTDTCMSTNGLLCSGRGNCECGSCVCVQPGSYGDTCEKCPTCPDACSFKKECVECKKFNRGTLHEENTCSRYCRDDIEQVKELTDTGKNAVNCTYKNEDDCVVRFQYYEDTSGRAVLYVVEEPECPKGPDILVVLLSVMGAILLIGLATLLIWKLLITIHDRKEFAKFEEERARAKWDTANNPLYKEATSTFTNITYRGT
In the case of B1, the binding [2] is reported as “binds”.
